Source: US20030032579A1, “Therapeutic use of selective PDE10 inhibitors” (Pfizer Inc., priority 2001, published 2003)
For at least one compound, name, drawing or mass did not settle the structure.

System: medium spiny neurons
Assay: CREB phosphorylation in medium spiny neurons, Western blot
Assay type: cell-based, rat
Conditions: Western blotting
Description: Medium spiny neuron cultures were prepared as discussed in Example 2 from striata from E17 or E18 rat embryos. The striata were digested with trypsin and the dissociated cells plated on poly-L-omithine/laminin coated plates in Neurobasal medium containing B27 supplement. For assays of cyclic nucleotide formation and CREB phosphorylation, neurons are also supplemented with 50 ng/ml BDNF and used at 6 DIV. At this time, approximately 90% of the cells are of neuronal morphology and 50% stain positively for GABA.
cAMP and cGMP activate protein kinases PKA and PKG, respectively. Both kinases are capable of phosphorylating the transcription regulator CREB. We examined the effects of the selective PDE inhibitors in Table 3 on phosphorylation of CREB as a downstream event in the cyclic nucleotide signaling cascade.

C=C[C@@]1(C)CC(=O)[C@]2(O)[C@@]3(C)[C@@H](O)CCC(C)(C)[C@@H]3[C@H](O)[C@H](OC(C)=O)[C@@]2(C)O1 [forskolin]
rank order of efficacy in increasing CREB phosphorylation: forskolin>selective PDE 10 inhibitor>rolipram | CREB phosphorylation (compound without other stimuli): robust increase in CREB phosphorylation
